Source: PubChem BioAssay AID504771 (Drosophila RNAi Screening Center, 2011)
This is not the whole library: the list holds selected reagents. 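All genes were primary candidates; inactive means validation failed, not no effect; aggregate scores behind calls are not deposited.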 The numbers tell different reagents against one gene apart. Names joined by + are all predicted targets of the reagent. No sequences are given here.

- Test: 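Genes whose knock-down alters aggregation of mutant huntingtin with 46 glutamines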 (follow-up of hits)
- Cell system: Drosophila S2 cells with copper-inducible mutant huntingtin exon 1 (46 glutamines)-eGFP
- Reagents: long dsRNA against Drosophila genes, 250 ng dsRNA per well
- Time to read-out: 3 days of knock-down, then 2 days of copper induction before fixing
- Treatment: copper sulfate at 400 µM to switch on Htt-Q46-eGFP expression
- Measurement: 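Automated image analysis of GFP-tagged aggregates per well: number, size and intensity against plate mean and SD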
- Hit rule: 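Primary candidate if any aggregate measure lay more than 2 SD from the plate mean; active only if it then passed checks for off-target effects, reproducibility, independent dsRNAs and a promoter counter-screen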
- Meaning of the calls: active = confirmed modifier; inactive = primary candidate not confirmed

no.	gene knocked down	dsRNA no.	aggregation phenotype	activity call
1	aurB	1	knock-down lowers aggregates	inactive
2	pzg	1	knock-down raises aggregates	active
3	RpL30	1	knock-down lowers aggregates	inactive
4	mRpS34	1	knock-down lowers aggregates	inactive
5	eRF1	1	knock-down lowers aggregates	inactive
6	IntS4	1	knock-down raises aggregates	active
7	RpS18	1	knock-down lowers aggregates	inactive
8	Sin3A	1	knock-down raises aggregates	active
9	CG31229	1	knock-down lowers aggregates	inactive
10	rept	1	knock-down lowers aggregates	inactive
11	CG33695 + cana	1	knock-down lowers aggregates	inactive
12	OtopLc	1	knock-down lowers aggregates	inactive
13	ND-B14.7	1	knock-down lowers aggregates	inactive
14	Madm	1		active
15	Prp3	1	knock-down lowers aggregates	inactive
16	RpL24	1	knock-down lowers aggregates	inactive
17	RpL3	1	knock-down lowers aggregates	inactive
18	Mo25	1	knock-down lowers aggregates	inactive
19	Bx42	1	knock-down lowers aggregates	inactive
20	Rpn12	1	knock-down lowers aggregates	inactive
21	RpS15	1	knock-down lowers aggregates	inactive
22	RpS14b	1	knock-down lowers aggregates	inactive
23	eIF5B	1	knock-down lowers aggregates	inactive
24	CycE	1	knock-down raises aggregates	inactive
25	CycE	2	knock-down raises aggregates	inactive
26	ZC3H3	1	knock-down lowers aggregates	active
27	CG5808	1	knock-down lowers aggregates	inactive
28	heca	1	knock-down raises aggregates	inactive
29	heca	2	knock-down raises aggregates	inactive
30	RpL15	1	knock-down lowers aggregates	inactive
31	CG5861	1	knock-down lowers aggregates	inactive
32	Nup358	1	knock-down lowers aggregates	active
33	RpS2	1	knock-down lowers aggregates	inactive
34	sbr	1	knock-down lowers aggregates	inactive
35	RpL37-1	1	knock-down lowers aggregates	inactive
36	IntS8	1	knock-down raises aggregates	active
37	Ns1	1	knock-down lowers aggregates	inactive
38	MED25	1	knock-down lowers aggregates	inactive
39	MED25	2	knock-down lowers aggregates	inactive
40	Dp	1	knock-down raises aggregates	active
41	RpL8	1	knock-down lowers aggregates	inactive
42	RpL8	2	knock-down lowers aggregates	inactive
43	GluProRS	1	knock-down lowers aggregates	inactive
44	Tektin-C	1	knock-down lowers aggregates	active
45	CG31743 + CG34313	1	knock-down lowers aggregates	inactive
46	nej	1	knock-down raises aggregates	active
47	mRpL17	1	knock-down lowers aggregates	inactive
48	IntS2	1	knock-down raises aggregates	active
49	polo	1	knock-down lowers aggregates	active
50	Vha16-1	1	knock-down raises aggregates	inactive
51	CG13675	1	knock-down lowers aggregates	inactive
52	mi	1	knock-down raises aggregates	inactive
53	Rpn8	1	knock-down lowers aggregates	inactive
54	Pp1-13C	1	knock-down lowers aggregates	inactive
55	lola	1	knock-down raises aggregates	inactive
56	DCP2	1	knock-down raises aggregates	inactive
57	Spt20	1	knock-down raises aggregates	inactive
58	MED19	1	knock-down lowers aggregates	inactive
59	Prosbeta7	1	knock-down lowers aggregates	inactive
60	RpL4	1	knock-down lowers aggregates	inactive
61	CG31959 (retired record)	1	knock-down raises aggregates	active
62	MED4	1	knock-down lowers aggregates	inactive
63	Polr2I	1	knock-down lowers aggregates	inactive
64	rn	1	knock-down raises aggregates	active
65	Cdc16	1	knock-down lowers aggregates	inactive
66	Rrp6	1	knock-down lowers aggregates	inactive
67	SLO2	1	knock-down lowers aggregates	inactive
68	pav	1	knock-down lowers aggregates	inactive
69	scaf6	1	knock-down lowers aggregates	inactive
70	Sodh2	1	knock-down raises aggregates	inactive
71	Saf6	1	knock-down raises aggregates	inactive
72	Noc3	1	knock-down lowers aggregates	inactive
73	Upf1	1	knock-down raises aggregates	active
74	Nmt	1	knock-down lowers aggregates	inactive
75	sesB	1	knock-down lowers aggregates	active
76	Diap1	1	knock-down lowers aggregates	inactive
77	RpL7A	1	knock-down lowers aggregates	inactive
78	RpL5	1	knock-down lowers aggregates	inactive
79	mute	1	knock-down raises aggregates	inactive
80	Nup62	1	knock-down lowers aggregates	active
81	FASN1	1	knock-down lowers aggregates	inactive
82	CkIIalpha	1	knock-down lowers aggregates	active
83	Syx5	1	knock-down lowers aggregates	inactive
84	Srlp	1	knock-down lowers aggregates	inactive
85	RpL32	1	knock-down lowers aggregates	inactive
86	BubR1	1	knock-down lowers aggregates	active
87	Tnpo	1	knock-down lowers aggregates	inactive
88	Polr2C	1	knock-down lowers aggregates	inactive
89	Prosbeta4	1	knock-down lowers aggregates	inactive
90	cbc	1	knock-down lowers aggregates	inactive
91	Hsc70-4	1	knock-down lowers aggregates	active
92	Cdc27	1	knock-down lowers aggregates	inactive
93	CG7044	1	knock-down raises aggregates	inactive
94	Prosbeta1	1	knock-down lowers aggregates	active
95	Pif1A + Pif1B	1	knock-down lowers aggregates	inactive
96	Pcf11	1	knock-down lowers aggregates	inactive
97	Mtr4	1	knock-down lowers aggregates	active
98	Sf3b6	1	knock-down lowers aggregates	inactive
99	RpS7	1	knock-down lowers aggregates	inactive
100	IntS3	1	knock-down raises aggregates	inactive
101	Sec63	1	knock-down lowers aggregates	inactive
102	CG31454	1	knock-down raises aggregates	inactive
103	Spc105R	1	knock-down lowers aggregates	inactive
104	RpS4	1	knock-down lowers aggregates	inactive
105	RpS3A	1	knock-down lowers aggregates	inactive
106	Cdk7	1	knock-down lowers aggregates	inactive
107	RpS14a	1	knock-down lowers aggregates	inactive
108	RpL21	1	knock-down lowers aggregates	inactive
109	eIF3k	1	knock-down raises aggregates	inactive
110	CG3213	1	knock-down lowers aggregates	inactive

Reformatted: 15 of the entries above.
gene knocked down	dsRNA no.	aggregation phenotype	activity call
IntS8	1	knock-down raises aggregates	active
Ns1	1	knock-down lowers aggregates	inactive
MED25	1	knock-down lowers aggregates	inactive
MED25	2	knock-down lowers aggregates	inactive
Dp	1	knock-down raises aggregates	active
RpL8	1	knock-down lowers aggregates	inactive
RpL8	2	knock-down lowers aggregates	inactive
GluProRS	1	knock-down lowers aggregates	inactive
Tektin-C	1	knock-down lowers aggregates	active
CG31743 + CG34313	1	knock-down lowers aggregates	inactive
nej	1	knock-down raises aggregates	active
mRpL17	1	knock-down lowers aggregates	inactive
IntS2	1	knock-down raises aggregates	active
polo	1	knock-down lowers aggregates	active
Vha16-1	1	knock-down raises aggregates	inactive
